{"source": "the supplement of paper PMC9135407", "tested_on": "primary human hepatic stellate cells (donor 1)", "assay": "percent Bodipy-positive cells; higher = more lipid droplet accumulation", "details": "48 h", "key": {"[1]": {"details": "library stock concentration: 10 mM"}, "[2]": {"details": "library stock concentration: 3.33 mM"}, "[3]": {"details": "library stock concentration: 80 uM"}, "[4]": {"details": "library stock concentration: 1 mM"}}, "note": "Values joined by “and” are separate entries in the source; they are usually repeats but may differ in a detail not shown here. Identical values can stand only once. Counter-ions that a name gives are not always drawn. ± gives the standard deviation of the averaged measurements. Some of the results follow. Baselines shift from plate to plate; read single values as rough.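 Culture-activated primary human stellate myofibroblasts, where regained lipid droplets signal inactivation. Value: share of Hoechst-counted cells above a per-plate Bodipy cutoff, in duplicate wells, with DMSO negative and nortriptyline positive controls on each plate. Hits: a control-normalized score above the plate's top-tenth-percentile nortriptyline wells, or one of a plate's three best wells. Final well concentrations are not given.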", "data": [{"smiles": "NCCCCCC(=O)O", "note": "[6-Aminohexanoic acid]", "values": [{"measurement": "percent Bodipy-positive cells", "setting": "[1]", "value": "52.7 ± 3.6", "unit": "%"}]}, {"smiles": "NCCCCCC(=O)O", "note": "[Aminocaproic acid]", "values": [{"measurement": "percent Bodipy-positive cells", "value": "7.66 ± 3.1", "unit": "%"}, {"measurement": "percent Bodipy-positive cells", "setting": "library stock concentration: 15.2 mM", "value": "2.87 ± 1.6", "unit": "%"}]}, {"smiles": "NCCCCCC(=O)O", "note": "[?6-??-?Aminocaproic acid]", "values": [{"measurement": "percent Bodipy-positive cells", "setting": "[2]", "value": "8.6 ± 2.8", "unit": "%"}, {"measurement": "percent Bodipy-positive cells", "setting": "[1]", "value": "13.3 ± 0.18", "unit": "%"}]}, {"smiles": "NCCCCCC(=O)O", "note": "[6-aminocaproic acid]", "values": [{"measurement": "percent Bodipy-positive cells", "setting": "[1]", "value": "9.69 ± 1.9", "unit": "%"}]}, {"smiles": "CC(C)CCNC(=O)[C@H](CC(C)C)NC(=O)[C@H]1O[C@@H]1C(=O)O", "note": "[Loxistatin Acid (E-64C)]", "values": [{"measurement": "percent Bodipy-positive cells", "setting": "[2]", "value": "22.9 ± 8.9", "unit": "%"}, {"measurement": "percent Bodipy-positive cells", "setting": "[1]", "value": "30.5 ± 2.7", "unit": "%"}]}, {"smiles": "c1ccc2c(CCNc3ccc(Nc4ccncc4)cc3)c[nH]c2c1", "values": [{"measurement": "percent Bodipy-positive cells", "setting": "[3]", "value": "27.7 ± 12", "unit": "%"}, {"measurement": "percent Bodipy-positive cells", "setting": "library stock concentration: 400 uM", "value": "31.1 ± 2.3", "unit": "%"}, {"measurement": "percent Bodipy-positive cells", "setting": "library stock concentration: 2 mM", "value": "34.9 ± 7.9", "unit": "%"}, {"measurement": "percent Bodipy-positive cells", "setting": "[2]", "value": "37.4 ± 4.7", "unit": "%"}]}, {"smiles": "COc1ccc2c(Oc3ccc(NC(=O)c4c(C)n(CC(C)(C)O)n(-c5ccccc5)c4=O)nc3)ccnc2c1", "values": [{"measurement": "percent Bodipy-positive cells", "setting": "[2]", "value": "9.08 ± 3.5", "unit": "%"}, {"measurement": "percent Bodipy-positive cells", "setting": "[1]", "value": "10.4 ± 1.6", "unit": "%"}]}, {"smiles": "COc1c(C)cnc(Cn2cnc3c(Cl)nc(N)nc32)c1C", "values": [{"measurement": "percent Bodipy-positive cells", "setting": "[1]", "value": "70.2 ± 0.83", "unit": "%"}]}, {"smiles": "CN(C)C(=N)NC(=N)N", "note": "[Metformin]", "values": [{"measurement": "percent Bodipy-positive cells", "setting": "library stock concentration: 15.5 mM", "value": "7.49 ± 2.1", "unit": "%"}]}, {"smiles": "CN(C)C(=N)NC(=N)N", "note": "[Metformin hydrochloride]", "values": [{"measurement": "percent Bodipy-positive cells", "value": "27.5 ± 4.6", "unit": "%"}, {"measurement": "percent Bodipy-positive cells", "setting": "[1]", "value": "39.3 ± 4.5", "unit": "%"}, {"measurement": "percent Bodipy-positive cells", "setting": "library stock concentration: 12.1 mM", "value": "17.4 ± 4.9", "unit": "%"}]}, {"smiles": "Cc1csc(-c2nnc(Nc3ccc(Oc4ncccc4-c4ccnc(N)n4)cc3)c3ccccc23)c1", "values": [{"measurement": "percent Bodipy-positive cells", "setting": "[2]", "value": "8.66 ± 1.2", "unit": "%"}, {"measurement": "percent Bodipy-positive cells", "setting": "[1]", "value": "15.1 ± 3.6", "unit": "%"}]}, {"smiles": "Nc1nc2c(ncn2COC(CO)CO)c(=O)[nH]1", "note": "[Ganciclovir]", "values": [{"measurement": "percent Bodipy-positive cells", "value": "8.34 ± 0.19", "unit": "%"}, {"measurement": "percent Bodipy-positive cells", "setting": "[2]", "value": "10.9 ± 5.3", "unit": "%"}, {"measurement": "percent Bodipy-positive cells", "setting": "library stock concentration: 7.8 mM", "value": "9.84 ± 1.3", "unit": "%"}, {"measurement": "percent Bodipy-positive cells", "setting": "[1]", "value": "19.6% and 33%"}]}, {"smiles": "CCCCCCCCCCCCCCCC(=O)OC[C@H](O)[C@H]1OC(=O)C(O)=C1O", "note": "[Ascorbyl palmitate]", "values": [{"measurement": "percent Bodipy-positive cells", "setting": "library stock concentration: 4.8 mM", "value": "2.27 ± 0.65", "unit": "%"}]}, {"smiles": "CCCCC[C@H](O)/C=C/[C@H]1C2CC(CO2)[C@@H]1C/C=C/CCCC(=O)O", "note": "(some centres not stated)", "values": [{"measurement": "percent Bodipy-positive cells", "setting": "[4]", "value": "18.9 ± 8", "unit": "%"}]}, {"smiles": "Cc1ccc(NC(=O)NCCSCc2ccc(CN(C)C)o2)cc1Cl", "values": [{"measurement": "percent Bodipy-positive cells", "setting": "[1]", "value": "86.5 ± 2.1", "unit": "%"}]}, {"smiles": "COc1ccc(C2(O)OC(=O)C(c3ccc4c(c3)OCO4)=C2Cc2cc(OC)c(OC)c(OC)c2)cc1", "note": "(configuration not stated)", "values": [{"measurement": "percent Bodipy-positive cells", "setting": "[1]", "value": "28.3 ± 2.1", "unit": "%"}]}, {"smiles": "CCCCCCCCCCCCCCCCOC[C@H](COP(=O)([O-])OCCCCCC[N+](C)(C)C)OC(C)=O", "note": "[Hexanolamino PAF C-16]", "values": [{"measurement": "percent Bodipy-positive cells", "setting": "[4]", "value": "13.5 ± 1.5", "unit": "%"}]}, {"smiles": "N#C/C(=C\\c1ccc(O)c(O)c1)C(=O)NCCCCc1ccccc1", "values": [{"measurement": "percent Bodipy-positive cells", "setting": "[1]", "value": "6.59 ± 1.2", "unit": "%"}]}, {"smiles": "Cc1noc(NS(=O)(=O)c2cccc3c(N(C)C)cccc23)c1C", "values": [{"measurement": "percent Bodipy-positive cells", "setting": "[1]", "value": "7.16 ± 0.48", "unit": "%"}]}, {"smiles": "CCCCCC/C=C\\CCCC(=O)CC(=O)N[C@H]1CCOC1=O", "note": "[N-3-oxo-tetradec-7(Z)-enoyl-L-Homoserine lactone]", "values": [{"measurement": "percent Bodipy-positive cells", "setting": "[4]", "value": "13.4 ± 1.8", "unit": "%"}]}, {"smiles": "CC[C@@H](CO)Nc1nc(NCc2ccc(-c3ccccn3)cc2)c2ncn(C(C)C)c2n1", "note": "[CR8, (S)-Isomer]", "values": [{"measurement": "percent Bodipy-positive cells", "setting": "[2]", "value": "31.9 ± 3.5", "unit": "%"}]}, {"smiles": "CCN(CC)C(=O)c1ccc(O)c(OC)c1", "note": "[Vanillic acid diethylamide]", "values": [{"measurement": "percent Bodipy-positive cells", "setting": "[1]", "value": "27.5 ± 6.6", "unit": "%"}]}, {"smiles": "CCN(CC)C(=O)c1ccc(O)c(OC)c1", "note": "[Ethamivan]", "values": [{"measurement": "percent Bodipy-positive cells", "value": "22 ± 4.7", "unit": "%"}, {"measurement": "percent Bodipy-positive cells", "setting": "library stock concentration: 9 mM", "value": "4.09 ± 1.9", "unit": "%"}]}, {"smiles": "CN(C)c1ccc(-c2nc3c(N4CCN(CC(=O)Nc5nccs5)CC4)c(Cl)cnc3[nH]2)cc1", "values": [{"measurement": "percent Bodipy-positive cells", "setting": "[2]", "value": "86.51 ± 0.13", "unit": "%"}, {"measurement": "percent Bodipy-positive cells", "setting": "[1]", "value": "96.8 ± 2", "unit": "%"}]}, {"smiles": "NC1(C(=O)O)CC1", "note": "[1-Aminocyclopropanecarboxylic acid hydrochloride]", "values": [{"measurement": "percent Bodipy-positive cells", "setting": "[1]", "value": "46.16 ± 0.26", "unit": "%"}]}, {"smiles": "COc1ccc(-c2cc(=O)c3c(O)c(OC)c(OC)c(OC)c3o2)cc1", "note": "[Gardenin b]", "values": [{"measurement": "percent Bodipy-positive cells", "setting": "[1]", "value": "57.2 ± 20", "unit": "%"}]}, {"smiles": "C[C@H]1[C@H](C)CC[C@]2(C(=O)O)CC[C@]3(C)C(=CC[C@@H]4[C@@]5(C)CC[C@H](O)C(C)(C)[C@@H]5CC[C@]43C)[C@H]12", "note": "[Ursolic acid]", "values": [{"measurement": "percent Bodipy-positive cells", "value": "22.2 ± 1.8", "unit": "%"}]}, {"smiles": "C[C@H]1[C@H](C)CC[C@]2(C(=O)O)CC[C@]3(C)C(=CC[C@@H]4[C@@]5(C)CC[C@H](O)C(C)(C)[C@@H]5CC[C@]43C)[C@H]12", "note": "[Ursolic Acid]", "values": [{"measurement": "percent Bodipy-positive cells", "setting": "[2]", "value": "5.38 ± 1.8", "unit": "%"}, {"measurement": "percent Bodipy-positive cells", "setting": "[1]", "value": "10.6 ± 0.74", "unit": "%"}]}, {"smiles": "O=C(c1ccc(F)cc1)C1CCN(CCn2c(=O)[nH]c3ccccc3c2=O)CC1", "note": "[Ketanserin tartrate hydrate]", "values": [{"measurement": "percent Bodipy-positive cells", "value": "35.9 ± 4.1", "unit": "%"}]}, {"smiles": "O=C(c1ccc(F)cc1)C1CCN(CCn2c(=O)[nH]c3ccccc3c2=O)CC1", "note": "[Ketanserin tartrate]", "values": [{"measurement": "percent Bodipy-positive cells", "setting": "library stock concentration: 5.1 mM", "value": "19.4% and 2.16%"}, {"measurement": "percent Bodipy-positive cells", "setting": "[1]", "value": "41.1% and 39.9% and 18.7%"}]}, {"smiles": "O=C(c1ccc(F)cc1)C1CCN(CCn2c(=O)[nH]c3ccccc3c2=O)CC1", "note": "[Ketanserin]", "values": [{"measurement": "percent Bodipy-positive cells", "setting": "[2]", "value": "7.772 ± 0.071", "unit": "%"}, {"measurement": "percent Bodipy-positive cells", "setting": "[1]", "value": "32 ± 14", "unit": "%"}]}, {"smiles": "NC(=O)Nc1cc(-c2cccc(F)c2)sc1C(=O)N[C@H]1CCCNC1", "values": [{"measurement": "percent Bodipy-positive cells", "setting": "[3]", "value": "10.5 ± 5", "unit": "%"}, {"measurement": "percent Bodipy-positive cells", "setting": "[1]", "value": "97.3% and 84.8% and 100%"}]}, {"smiles": "CC(=O)N[C@@H](CSC/C=C(\\C)CC/C=C(\\C)CCC=C(C)C)C(=O)O", "note": "[N-acetyl-S-farnesyl-L-Cysteine]", "values": [{"measurement": "percent Bodipy-positive cells", "setting": "[4]", "value": "9.58 ± 1.9", "unit": "%"}]}, {"smiles": "CC(=O)N[C@@H](CSC/C=C(\\C)CC/C=C(\\C)CCC=C(C)C)C(=O)O", "note": "[Acetyl (N)-s-farnesyl-l-cysteine]", "values": [{"measurement": "percent Bodipy-positive cells", "setting": "library stock concentration: 13.6 mM", "value": "15.6 ± 6.2", "unit": "%"}]}, {"smiles": "Cc1nc2c(-c3cnc(N)nc3)nc(N3CCOCC3)nc2n1C(C)C", "values": [{"measurement": "percent Bodipy-positive cells", "setting": "[2]", "value": "6.05 ± 0.88", "unit": "%"}, {"measurement": "percent Bodipy-positive cells", "setting": "[1]", "value": "39.2 ± 6.6", "unit": "%"}]}, {"smiles": "Nc1nccc(Oc2ccc(NC(=O)c3c[nH]cc(-c4ccc(F)cc4)c3=O)cc2F)c1Cl", "values": [{"measurement": "percent Bodipy-positive cells", "setting": "[2]", "value": "8.6 ± 0.3", "unit": "%"}, {"measurement": "percent Bodipy-positive cells", "setting": "[1]", "value": "25.2 ± 1.8", "unit": "%"}]}]}
